Results as given in paper PMC11226401.

Target: MUC1-C subunit (human (endogenous in BT-549 and MDA-MB-468))
Test: co-IP; MDA-MB-468 cells; lysates precipitated with anti-MUC1-C or control IgG, Pierce Classic Magnetic Co-IP Kit; immunoblot of precipitates

B1: non-POU domain-containing octamer-binding protein (NONO) (protein, UniProt Q15233 1-471)
chain: MQSNKTFNLEKQNHTPRKHHQHHHQQQHHQQQQQQPPPPPIPANGQQASSQNEGLTIDLKNFRKPGEKTFTQRSRLFVGNLPPDITEEEMRKLFEKYGKAGEVFIHKDKGFGFIRLETRTLAEIAKVELDNMPLRGKQLRVRFACHSASLTVRNLPQYVSNELLEEAFSVFGQVERAVVIVDDRGRPSGKGIVEFSGKPAARKALDRCSEGSFLLTTFPRPVTVEPMDQLDDEEGLPEKLVIKNQQFHKEREQPPRFAQPGSFEYEYAMRWKALIEMEKQQQDQVDRNIKEAREKLEMEMEAARHEHQVMLMRQDLMRRQEELRRMEELHNQEVQKRKQLELRQEEERRRREEEMRRQQEEMMRRQQEGFKGTFPDAREQEIRMGQMAMGGAMGINNRGAMPPAPVPAGTPAPPGPATMMPDGTLGLTPPTTERFGQAATMEGIGAIGGTPPAFNRAAPGAEFAPNKRRRY
Q: How did the binding turn out when B1 was run?
A: The binding was “binds”.

Results are given in words; binding and its absence hold for the method and conditions named. In cells and extracts the contact can be indirect. Binding calls can cover weak binding; strength is not graded here.
